Some of the results follow.
Columns and labels:
Experiment in all cases: log2 fold change, soluble protein after heating vs DMSO (PISA); higher = thermal stabilisation; K562 cells, 10 uM, 30 min; active = over 0.2 and 3.5 SD of the protein, either way, in both replicates (recomputed)
erlotinib = compound: C#Cc1cccc(Nc2ncnc3cc(OCCOC)c(OCCOC)cc23)c1 [erlotinib]
Summary of the method: (§1)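 K562 cells (2×10^6 cells/mL) were treated with 10 μM compound for 30 min, and aliquots were heated for 3 min over 48°C-58°C. Pooled aliquots were extracted in PBS with 0.5% NP-40 at 4°C, and the supernatant after 21,000xg for 90 min was measured by TMTpro 16plex LC-MS/MS with channel sums equalised. Reported thermal stability, relative to control samples and from duplicates, is a log2 fold change.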

The chains behind the UniProt entries cited, without tags or fusion partners. Where a name states a change or a piece, a line headed by the entry shows the natural chain unless it says otherwise.
UniProt Q9P260: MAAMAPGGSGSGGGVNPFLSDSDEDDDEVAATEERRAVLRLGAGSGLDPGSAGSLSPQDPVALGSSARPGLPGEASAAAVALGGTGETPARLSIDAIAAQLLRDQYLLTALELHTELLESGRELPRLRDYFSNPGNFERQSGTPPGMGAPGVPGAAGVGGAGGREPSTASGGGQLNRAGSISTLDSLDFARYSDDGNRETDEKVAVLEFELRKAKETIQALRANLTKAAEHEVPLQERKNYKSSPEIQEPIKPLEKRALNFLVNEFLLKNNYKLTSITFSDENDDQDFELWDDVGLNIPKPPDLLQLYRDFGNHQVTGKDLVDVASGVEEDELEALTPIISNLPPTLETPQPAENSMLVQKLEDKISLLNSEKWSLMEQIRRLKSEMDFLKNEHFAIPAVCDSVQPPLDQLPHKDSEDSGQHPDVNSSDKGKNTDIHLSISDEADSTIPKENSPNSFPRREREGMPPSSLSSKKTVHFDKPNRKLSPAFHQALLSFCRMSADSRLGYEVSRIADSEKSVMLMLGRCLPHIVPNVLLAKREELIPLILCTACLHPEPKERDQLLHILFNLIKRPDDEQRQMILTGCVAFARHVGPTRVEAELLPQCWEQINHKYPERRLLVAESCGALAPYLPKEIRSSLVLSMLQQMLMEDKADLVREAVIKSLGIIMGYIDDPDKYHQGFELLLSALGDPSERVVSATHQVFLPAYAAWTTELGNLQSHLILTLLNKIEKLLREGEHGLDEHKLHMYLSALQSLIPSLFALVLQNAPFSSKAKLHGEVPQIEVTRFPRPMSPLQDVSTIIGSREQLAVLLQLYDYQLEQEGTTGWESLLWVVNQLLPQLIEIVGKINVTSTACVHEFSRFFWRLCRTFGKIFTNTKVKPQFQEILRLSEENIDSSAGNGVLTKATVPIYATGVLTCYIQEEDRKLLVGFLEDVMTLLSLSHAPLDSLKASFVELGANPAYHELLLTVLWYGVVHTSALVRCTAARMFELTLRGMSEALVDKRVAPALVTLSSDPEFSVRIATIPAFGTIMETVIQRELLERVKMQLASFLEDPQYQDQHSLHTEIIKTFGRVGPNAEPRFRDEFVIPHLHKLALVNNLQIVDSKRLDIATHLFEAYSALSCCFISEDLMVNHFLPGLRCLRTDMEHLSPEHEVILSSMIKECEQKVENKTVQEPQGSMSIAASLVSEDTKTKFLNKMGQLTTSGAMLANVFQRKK
UniProt Q9BRS2: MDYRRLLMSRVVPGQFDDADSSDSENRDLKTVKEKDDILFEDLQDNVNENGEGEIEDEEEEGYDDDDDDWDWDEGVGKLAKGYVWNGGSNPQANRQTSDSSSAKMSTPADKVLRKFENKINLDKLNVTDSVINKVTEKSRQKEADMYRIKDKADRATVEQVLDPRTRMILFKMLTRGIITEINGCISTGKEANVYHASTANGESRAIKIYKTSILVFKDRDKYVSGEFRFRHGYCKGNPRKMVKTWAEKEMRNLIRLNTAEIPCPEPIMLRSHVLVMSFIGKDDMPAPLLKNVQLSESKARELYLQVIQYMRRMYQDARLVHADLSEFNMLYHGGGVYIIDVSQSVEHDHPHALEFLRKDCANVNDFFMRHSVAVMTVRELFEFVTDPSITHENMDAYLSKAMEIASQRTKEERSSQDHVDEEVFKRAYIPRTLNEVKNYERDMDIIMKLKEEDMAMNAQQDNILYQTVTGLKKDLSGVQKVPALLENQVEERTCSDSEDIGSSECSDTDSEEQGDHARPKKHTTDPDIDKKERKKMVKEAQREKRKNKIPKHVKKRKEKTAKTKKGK
UniProt Q13546: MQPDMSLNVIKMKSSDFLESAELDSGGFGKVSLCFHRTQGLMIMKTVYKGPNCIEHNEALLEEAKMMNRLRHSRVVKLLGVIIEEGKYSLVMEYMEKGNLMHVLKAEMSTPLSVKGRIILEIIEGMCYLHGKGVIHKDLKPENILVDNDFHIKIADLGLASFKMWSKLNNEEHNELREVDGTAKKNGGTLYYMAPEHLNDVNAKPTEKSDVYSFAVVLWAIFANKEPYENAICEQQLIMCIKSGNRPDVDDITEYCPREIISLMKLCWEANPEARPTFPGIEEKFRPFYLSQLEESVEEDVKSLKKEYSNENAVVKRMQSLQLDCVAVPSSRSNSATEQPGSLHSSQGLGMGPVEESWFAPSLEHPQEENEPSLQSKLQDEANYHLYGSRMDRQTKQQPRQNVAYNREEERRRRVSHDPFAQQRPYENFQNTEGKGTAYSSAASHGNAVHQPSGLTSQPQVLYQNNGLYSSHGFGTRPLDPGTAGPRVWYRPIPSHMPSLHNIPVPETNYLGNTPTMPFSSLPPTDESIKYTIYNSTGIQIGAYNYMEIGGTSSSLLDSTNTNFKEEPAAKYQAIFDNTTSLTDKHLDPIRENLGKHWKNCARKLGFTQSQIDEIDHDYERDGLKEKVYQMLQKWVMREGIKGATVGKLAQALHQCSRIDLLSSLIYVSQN
UniProt Q96HR9: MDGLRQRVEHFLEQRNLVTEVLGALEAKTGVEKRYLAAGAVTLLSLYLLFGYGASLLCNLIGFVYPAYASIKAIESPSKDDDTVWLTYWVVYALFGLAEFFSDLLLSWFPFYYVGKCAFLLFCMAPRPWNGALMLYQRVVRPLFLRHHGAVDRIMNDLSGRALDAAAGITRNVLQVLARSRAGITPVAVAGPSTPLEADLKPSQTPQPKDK
UniProt Q9H871: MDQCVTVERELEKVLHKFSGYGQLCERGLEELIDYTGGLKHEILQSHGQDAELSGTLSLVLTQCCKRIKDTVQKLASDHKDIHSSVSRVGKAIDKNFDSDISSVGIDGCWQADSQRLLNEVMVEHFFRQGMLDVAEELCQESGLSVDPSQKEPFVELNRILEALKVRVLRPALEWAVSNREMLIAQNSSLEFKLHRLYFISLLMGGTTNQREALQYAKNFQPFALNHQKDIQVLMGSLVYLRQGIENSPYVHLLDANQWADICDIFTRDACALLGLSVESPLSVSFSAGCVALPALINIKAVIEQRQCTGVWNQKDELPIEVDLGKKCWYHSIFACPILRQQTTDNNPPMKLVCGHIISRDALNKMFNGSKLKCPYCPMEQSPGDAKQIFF
UniProt Q9BWF3: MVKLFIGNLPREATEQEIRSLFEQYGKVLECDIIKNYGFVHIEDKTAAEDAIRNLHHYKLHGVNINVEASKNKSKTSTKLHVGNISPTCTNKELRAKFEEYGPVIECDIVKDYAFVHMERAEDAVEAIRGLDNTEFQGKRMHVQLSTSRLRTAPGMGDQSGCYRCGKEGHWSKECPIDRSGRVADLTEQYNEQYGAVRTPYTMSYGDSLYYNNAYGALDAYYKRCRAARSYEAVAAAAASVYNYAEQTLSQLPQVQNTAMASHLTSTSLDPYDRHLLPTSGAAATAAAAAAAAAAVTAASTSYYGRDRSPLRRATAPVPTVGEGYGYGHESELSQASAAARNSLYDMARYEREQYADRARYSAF
UniProt Q8TAC1: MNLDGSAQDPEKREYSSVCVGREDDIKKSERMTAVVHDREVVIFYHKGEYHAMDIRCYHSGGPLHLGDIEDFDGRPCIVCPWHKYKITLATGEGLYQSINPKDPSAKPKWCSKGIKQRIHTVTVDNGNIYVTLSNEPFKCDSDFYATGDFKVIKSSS
UniProt Q6PCD5: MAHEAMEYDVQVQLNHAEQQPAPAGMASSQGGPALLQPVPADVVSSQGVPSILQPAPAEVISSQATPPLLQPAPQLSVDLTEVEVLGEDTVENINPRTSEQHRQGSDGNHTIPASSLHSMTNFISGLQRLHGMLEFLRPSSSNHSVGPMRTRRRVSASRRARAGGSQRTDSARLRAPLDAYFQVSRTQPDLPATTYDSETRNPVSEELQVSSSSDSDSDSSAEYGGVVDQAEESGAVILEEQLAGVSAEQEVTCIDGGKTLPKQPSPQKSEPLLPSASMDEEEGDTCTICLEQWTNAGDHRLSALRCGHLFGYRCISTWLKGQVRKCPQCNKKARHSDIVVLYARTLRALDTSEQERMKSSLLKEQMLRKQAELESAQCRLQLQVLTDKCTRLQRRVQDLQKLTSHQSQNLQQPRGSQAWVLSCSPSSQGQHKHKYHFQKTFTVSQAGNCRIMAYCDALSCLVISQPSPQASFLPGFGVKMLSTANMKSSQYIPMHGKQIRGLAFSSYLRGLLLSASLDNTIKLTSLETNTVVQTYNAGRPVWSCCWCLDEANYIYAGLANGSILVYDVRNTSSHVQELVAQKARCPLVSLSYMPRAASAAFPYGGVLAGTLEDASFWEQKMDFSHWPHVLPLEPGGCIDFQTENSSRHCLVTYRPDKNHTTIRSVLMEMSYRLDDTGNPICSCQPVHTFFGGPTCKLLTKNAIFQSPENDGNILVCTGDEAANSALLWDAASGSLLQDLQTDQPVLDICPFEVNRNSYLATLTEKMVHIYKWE
UniProt Q8WVD3: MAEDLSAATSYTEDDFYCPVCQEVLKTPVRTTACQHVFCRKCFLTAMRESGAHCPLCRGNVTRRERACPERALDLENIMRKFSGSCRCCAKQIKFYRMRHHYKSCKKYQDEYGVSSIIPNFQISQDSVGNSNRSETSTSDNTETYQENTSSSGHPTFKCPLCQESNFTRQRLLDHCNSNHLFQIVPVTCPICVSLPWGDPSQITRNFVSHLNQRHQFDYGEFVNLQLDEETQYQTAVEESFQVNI
UniProt Q96PM5: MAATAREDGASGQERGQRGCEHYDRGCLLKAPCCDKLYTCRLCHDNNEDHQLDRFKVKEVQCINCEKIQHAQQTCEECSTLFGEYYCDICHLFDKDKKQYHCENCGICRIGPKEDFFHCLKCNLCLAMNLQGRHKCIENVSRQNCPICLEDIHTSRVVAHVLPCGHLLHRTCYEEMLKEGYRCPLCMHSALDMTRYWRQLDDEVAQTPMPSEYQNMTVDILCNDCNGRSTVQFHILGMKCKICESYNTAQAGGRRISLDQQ
UniProt P40937, whole entry, looked up: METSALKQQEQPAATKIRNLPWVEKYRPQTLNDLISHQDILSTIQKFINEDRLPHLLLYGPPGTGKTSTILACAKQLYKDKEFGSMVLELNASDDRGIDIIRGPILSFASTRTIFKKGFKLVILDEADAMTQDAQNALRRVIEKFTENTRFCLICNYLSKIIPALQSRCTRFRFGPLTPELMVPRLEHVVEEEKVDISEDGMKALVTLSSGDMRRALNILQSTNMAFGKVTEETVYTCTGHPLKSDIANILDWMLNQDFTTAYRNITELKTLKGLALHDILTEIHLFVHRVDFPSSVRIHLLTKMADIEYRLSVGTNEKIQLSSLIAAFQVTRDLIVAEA
UniProt Q14498: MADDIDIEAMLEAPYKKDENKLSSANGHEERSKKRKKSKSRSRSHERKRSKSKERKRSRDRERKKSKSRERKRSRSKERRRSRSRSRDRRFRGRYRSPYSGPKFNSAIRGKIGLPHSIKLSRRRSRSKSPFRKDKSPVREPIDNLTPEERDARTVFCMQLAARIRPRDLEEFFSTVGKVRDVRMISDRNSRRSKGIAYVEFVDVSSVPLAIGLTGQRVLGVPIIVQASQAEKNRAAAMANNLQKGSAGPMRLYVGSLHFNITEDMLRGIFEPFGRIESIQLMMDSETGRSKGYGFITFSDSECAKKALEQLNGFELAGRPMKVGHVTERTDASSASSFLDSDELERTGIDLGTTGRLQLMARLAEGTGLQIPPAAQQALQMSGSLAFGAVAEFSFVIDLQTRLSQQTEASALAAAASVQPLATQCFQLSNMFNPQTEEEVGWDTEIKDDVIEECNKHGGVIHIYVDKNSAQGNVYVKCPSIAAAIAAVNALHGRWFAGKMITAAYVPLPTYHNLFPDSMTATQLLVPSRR
UniProt Q9P258, whole entry, looked up: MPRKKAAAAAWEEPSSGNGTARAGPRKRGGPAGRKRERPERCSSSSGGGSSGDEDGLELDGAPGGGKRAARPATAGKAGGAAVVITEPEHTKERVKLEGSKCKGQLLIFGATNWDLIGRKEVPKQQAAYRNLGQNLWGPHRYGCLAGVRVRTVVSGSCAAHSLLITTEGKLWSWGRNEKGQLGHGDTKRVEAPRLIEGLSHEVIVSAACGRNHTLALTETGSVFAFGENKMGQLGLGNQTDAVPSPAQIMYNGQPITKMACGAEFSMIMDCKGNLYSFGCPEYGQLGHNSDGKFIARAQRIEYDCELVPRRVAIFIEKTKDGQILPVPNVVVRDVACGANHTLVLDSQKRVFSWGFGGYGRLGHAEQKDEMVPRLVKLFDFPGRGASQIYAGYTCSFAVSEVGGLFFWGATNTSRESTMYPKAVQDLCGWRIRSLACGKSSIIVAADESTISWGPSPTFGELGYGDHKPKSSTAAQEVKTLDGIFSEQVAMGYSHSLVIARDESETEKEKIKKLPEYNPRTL
UniProt P61586, whole entry, looked up: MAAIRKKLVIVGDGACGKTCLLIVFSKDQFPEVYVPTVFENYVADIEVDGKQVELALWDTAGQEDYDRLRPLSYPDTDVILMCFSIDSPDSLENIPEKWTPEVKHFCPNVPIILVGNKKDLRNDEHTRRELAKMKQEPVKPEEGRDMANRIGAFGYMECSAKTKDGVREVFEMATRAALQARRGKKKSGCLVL

[1] = compound: C/C(=N\NC(=O)C1=CC(=CC=C1)S(=O)(=O)N2CCOCC2)/C3=C(C=CC(=C3)Cl)O
Summary of the method: as §1

[2] = compound: C1=CC(=C(C=C1Cl)C2=NC3=NC=CN=C3C(=N2)NC4=CC=NC=C4)F
Summary of the method: as §1

[3] = compound: C1=CC(=CC=C1C2=NC3=C(N2)C=C(C=C3)C(=O)N)OC4=CC=C(C=C4)Cl
Summary of the method: as §1

[4] = compound: C1=CC2=C(C=CC(=C2)/C=C\3/C(=O)NC(=NCC4=CC=CS4)S3)N=C1
Summary of the method: as §1

[5] = compound: C1=CC2=NC=CN=C2C=C1/C=C/3\C(=O)NC(=O)S3
Summary of the method: as §1

[6] = compound: C1=CC=C(C=C1)C2=NC(=C(N2)C3=CC=NC=C3)C4=CC(=C(C=C4)Cl)O
Summary of the method: as §1

[7] = compound: C1=CC=C2C(=C1)C3=NNC4=CC=CC(=C43)C2=O
Summary of the method: as §1

[8] = compound: C1CCN(C1)C(=O)NC2=CC=CC(=C2)NC3=NC=C(C(=N3)NCCC4=CN=CN4)Br
Summary of the method: as §1

[9] = compound: C1CN(CCC1(CC2=CC=C(C=C2)Cl)N)C3=NC=NC4=C3C=CN4
Summary of the method: as §1

Measured: log2 fold change

REPS1 (UniProt Q96D71)
inactive: erlotinib -0.16 | [1] 0.089 | [2] -0.111 | [3] 0.002 | [4] 0.299 | [5] 0.078 | [6] -0.048 | [7] 0.059 | [8] 0.136 | [9] -0.155

RILP (UniProt Q96NA2)
inactive: erlotinib 0 | [1] 0.08 | [2] 0.008 | [3] 0.036 | [4] -0.001 | [5] -0.033 | [6] 0.042 | [7] 0.013 | [8] 0.015 | [9] 0.017

RELCH isoform 2 (UniProt Q9P260)
inactive: erlotinib 0.068 | [1] 0.111 | [2] -0.012 | [3] -0.003 | [4] 0.116 | [5] -0.004 | [6] 0.101 | [7] 0.04 | [8] -0.105 | [9] -0.026

RIOK1 (UniProt Q9BRS2)
inactive: erlotinib 0 | [1] -0.05 | [2] -0.062 | [3] 0.045 | [4] 0.014 | [5] 0.029 | [6] -0.069 | [7] 0.001 | [8] 0.046 | [9] -0.013

RCN2 isoform 2 (UniProt Q14257)
inactive: erlotinib 0.017 | [1] -0.037 | [2] 0.018 | [3] 0.009 | [4] 0.016 | [5] 0.013 | [6] 0 | [7] -0.048 | [8] 0.045 | [9] -0.011

RIPK2 (UniProt O43353)
inactive: erlotinib -0.091 | [1] 0.055 | [2] 0.028 | [3] 0.048 | [4] -0.129 | [5] 0.042 | [6] -0.139 | [7] -0.007 | [8] -0.014 | [9] 0.063

RNF213 isoform 4 (UniProt Q63HN8)
inactive: erlotinib 0.083 | [1] -0.183 | [2] -0.071 | [3] -0.004 | [4] 0.141 | [5] -0.245 | [6] -0.031 | [7] -0.051 | [8] 0.025 | [9] 0.047

REEP4 (UniProt Q9H6H4)
inactive: erlotinib -0.024 | [1] 0.027 | [2] -0.049 | [3] 0.026 | [4] -0.018 | [5] 0.005 | [6] 0.063 | [7] -0.04 | [8] 0.047 | [9] -0.081

REEP5 (UniProt Q00765)
inactive: erlotinib 0.02 | [1] -0.136 | [2] -0.026 | [3] -0.028 | [4] -0.006 | [5] 0.002 | [6] -0.033 | [7] 0.031 | [8] 0.01 | [9] 0.054

RIPK1 (UniProt Q13546)
inactive: erlotinib 0.013 | [1] -0.008 | [2] -0.028 | [3] 0 | [4] 0.068 | [5] -0.016 | [6] 0.004 | [7] 0.219 | [8] 0.002 | [9] -0.015

REEP6 (UniProt Q96HR9)
inactive: erlotinib 0.036 | [1] 0.064 | [2] 0.003 | [3] -0.023 | [4] 0.031 | [5] 0.108 | [6] 0.113 | [7] -0.04 | [8] -0.116 | [9] 0.031

RMND5A (UniProt Q9H871)
inactive: erlotinib -0.076 | [1] -0.047 | [2] -0.025 | [3] 0.029 | [4] 0.014 | [5] 0.028 | [6] -0.078 | [7] 0.017 | [8] 0.048 | [9] -0.067

2 neighbouring records already listed, quoted:
RCN2 isoform 2 (UniProt Q14257)
inactive: erlotinib 0.017 | [1] -0.037 | [2] 0.018 | [3] 0.009 | [4] 0.016 | [5] 0.013 | [6] 0 | [7] -0.048 | [8] 0.045 | [9] -0.011

RIPK2 (UniProt O43353)
inactive: erlotinib -0.091 | [1] 0.055 | [2] 0.028 | [3] 0.048 | [4] -0.129 | [5] 0.042 | [6] -0.139 | [7] -0.007 | [8] -0.014 | [9] 0.063

(list continues)

RHOT1 isoform 3 (UniProt Q8IXI2)
inactive: erlotinib 0.067 | [1] 0.038 | [2] 0.07 | [3] -0.014 | [4] 0.021 | [5] 0.007 | [6] 0.038 | [7] 0.003 | [8] -0.035 | [9] 0.034

REPIN1 isoform 4 (UniProt Q9BWE0)
inactive: erlotinib 0.081 | [1] -0.017 | [2] 0.035 | [3] -0.009 | [4] -0.027 | [5] 0.003 | [6] 0.02 | [7] -0.012 | [8] -0.04 | [9] 0.014

RBM4 (UniProt Q9BWF3)
inactive: erlotinib 0.02 | [1] 0 | [2] -0.102 | [3] 0.011 | [4] -0.012 | [5] 0.054 | [6] -0.041 | [7] -0.035 | [8] 0.012 | [9] -0.009

RFESD isoform 2 (UniProt Q8TAC1)
inactive: erlotinib 0.025 | [1] 0.015 | [2] 0.012 | [3] 0.07 | [4] 0.001 | [5] 0.043 | [6] 0.017 | [7] -0.058 | [8] 0.018 | [9] 0.068

RNF168 (UniProt Q8IYW5)
inactive: erlotinib -0.066 | [1] 0.141 | [3] -0.02 | [4] 0.149 | [5] -0.023 | [6] 0.101 | [7] 0.012 | [8] -0.043 | [9] -0.028

RFWD3 (UniProt Q6PCD5)
inactive: erlotinib 0.153 | [1] 0.053 | [2] 0.005 | [3] -0.006 | [4] 0.015 | [7] 0.14

RNF138 (UniProt Q8WVD3)
inactive: erlotinib 0.156 | [1] -0.136 | [2] 0.038 | [3] 0.036 | [4] -0.044 | [5] 0.019 | [7] 0.135 | [8] -0.024 | [9] 0.109

RCHY1 (UniProt Q96PM5)
inactive: erlotinib -0.045 | [1] 0.03 | [2] 0.047 | [3] 0.011 | [4] -0.002 | [5] 0.026 | [6] 0 | [7] -0.046 | [8] -0.064 | [9] 0.07

RNF121 (UniProt Q9H920)
inactive: erlotinib -0.01 | [1] 0.053 | [2] -0.011 | [3] 0.042 | [4] 0.005 | [5] 0.056 | [6] 0.067 | [7] -0.046 | [8] -0.053 | [9] 0.139

RC3H1 (UniProt Q5TC82)
inactive: erlotinib 0.007 | [1] 0.018 | [2] -0.046 | [3] 0.069 | [4] -0.189 | [7] 0 | [8] 0.022 | [9] -0.007

RFC5 (UniProt P40937)
inactive: erlotinib 0.032 | [1] 0.005 | [2] 0.067 | [3] -0.013 | [4] 0.036 | [5] 0 | [6] 0.012 | [7] 0.029 | [8] 0.003 | [9] 0.028

RBM39 (UniProt Q14498)
inactive: erlotinib 0.087 | [1] 0.074 | [2] 0.013 | [3] -0.028 | [4] -0.021 | [5] -0.052 | [6] -0.022 | [7] -0.168 | [8] -0.071 | [9] -0.232

RDX (UniProt P35241)
inactive: erlotinib -0.017 | [1] -0.019 | [2] 0.191 | [3] 0 | [4] -0.023 | [5] 0 | [6] 0.039 | [7] -0.021 | [8] -0.018 | [9] 0.023

RCC2 (UniProt Q9P258)
inactive: erlotinib -0.041 | [1] 0.049 | [2] 0.034 | [3] -0.007 | [4] 0.03 | [5] -0.017 | [6] -0.037 | [7] 0.019 | [8] -0.01 | [9] -0.007

RHOA (UniProt P61586)
inactive: erlotinib 0.028 | [1] -0.029 | [2] 0.012 | [3] -0.052 | [4] -0.094 | [5] -0.161 | [6] 0.114 | [7] 0.018 | [8] -0.05 | [9] 0.01

RMDN3 (UniProt Q96TC7)
inactive: erlotinib -0.002 | [1] 0.054 | [2] -0.034 | [3] 0.016 | [4] 0.045 | [5] -0.077 | [6] 0.013 | [7] 0.01 | [8] -0.03 | [9] 0.012
